Reference: patent US7662826B2, “Pyrazolo [1,5-a] pyrimidine derivative and nad (p) h oxidase inhibitor containing the same” (Shionogi & Co., Ltd., priority 2002, dated 2010)
Some results were stated once for a whole list of compounds, not compound by compound.

Target: T1, NADH/NADPH oxidase
T1 construct: Bovine aortic membrane fraction was used as enzyme preparation
Test: NADH/NADPH oxidase inhibition activity, lucigenin chemiluminescence, bovine aortic membrane fraction
Format: biochemical
Details: 5 μM lucigenin, 100 μM NADH, 37° C., pH 7.4

Structure (SMILES): CNC1CCN(c2ccc(NC(=O)c3ccn4ncc(-c5cccc(Cl)c5)c4n3)cc2)CC1 [Compound B291]
- IC50: ≤ 1000 nM

Structure (SMILES): O=C(Nc1cccc(N2CCNCC2)c1)c1ccn2ncc(-c3ccc(NCC4CCCCC4)cc3)c2n1 [Compound B77]
- IC50: ≤ 1000 nM

Structure (SMILES): O=C(N[C@H](CO)[C@H](O)c1ccccc1)c1ccn2ncc(-c3ccc(NCC4CCCCC4)cc3)c2n1 [Compound B109]
- IC50: ≤ 1000 nM

Structure (SMILES): COc1cccc(CNc2ccc(-c3cnn4ccc(C(=O)Nc5ccc(N6C[C@@H](C)N[C@@H](C)C6)cc5)nc34)cc2)c1 [Compound B300]
- IC50: ≤ 1000 nM

Structure (SMILES): CCNC1CCN(c2ccc(C(F)(F)F)cc2NC(=O)c2ccn3ncc(-c4ccc(Cl)c(Cl)c4)c3n2)CC1 [Compound B232]
- IC50: ≤ 1000 nM

Structure (SMILES): O=C(Nc1ccc(N2CCNCC2)cc1)c1ccn2ncc(-c3ccc(NCc4ccccc4)cc3)c2n1 [Compound B224]
- IC50: ≤ 1000 nM

Structure (SMILES): O=C(Nc1ccccc1N1CCNCC1)c1cc(N2CCCC2)n2ncc(-c3cccc(Cl)c3)c2n1 [Compound B53]
- IC50: ≤ 1000 nM

Structure (SMILES): CCCN1CCN(c2ccccc2NC(=O)c2ccn3ncc(-c4cccc(Cl)c4)c3n2)CC1 [Compound B258]
- IC50: ≤ 1000 nM

Structure (SMILES): O=C(Nc1ccc(N2CCNCC2)cc1)c1ccn2ncc(-c3cc(C(F)(F)F)cc(C(F)(F)F)c3)c2n1 [Compound B327]
- IC50: ≤ 1000 nM

Structure (SMILES): Cc1ccc(N2CCNCC2)cc1NC(=O)c1ccn2ncc(OCc3ccccc3)c2n1 [Compound B22]
- IC50: ≤ 1000 nM

Structure (SMILES): O=C(Nc1cnc2c(-c3ccc(Cl)cc3)cnn2c1)c1ccccc1N1CCNCC1 [Compound B277]
- IC50: ≤ 1000 nM

Structure (SMILES): CC(C)NC1CCN(c2ccccc2NC(=O)c2ccn3ncc(-c4cccc(Cl)c4)c3n2)CC1 [Compound B195]
- IC50: ≤ 1000 nM

Structure (SMILES): Clc1cccc(-c2cnn3ccc(/C4=N/c5ccccc5N5CCCCC5CN4)nc23)c1 (stereo not drawn) [Compound B292]
- IC50: ≤ 1000 nM

Structure (SMILES): O=C(Nc1ccccc1N1CCC(CNCCO)CC1)c1ccn2ncc(-c3cccc(Cl)c3)c2n1 [Compound B91]
- IC50: ≤ 1000 nM

Structure (SMILES): O=C(Nc1ccccc1-c1ccccc1)c1ccn2ncc(-c3cccc(Cl)c3)c2n1 [Compound A139]
- IC50: ≤ 1000 nM

Structure (SMILES): O=C(Nc1ccc(OCCN2CCCC2)cc1N1CCNCC1)c1ccn2ncc(-c3cccc(Cl)c3)c2n1 [Compound B75]
- IC50: ≤ 1000 nM

Structure (SMILES): COc1ccc(NC(=O)c2ccn3ncc(-c4cccc(Cl)c4)c3n2)c(N2CCNCC2)c1 [Compound B222]
- IC50: ≤ 1000 nM

Structure (SMILES): CCOC(=O)CCNC1CCN(c2ccccc2NC(=O)c2ccn3ncc(-c4cccc(Cl)c4)c3n2)CC1 [Compound B92]
- IC50: ≤ 1000 nM

Structure (SMILES): NCCC#Cc1ccccc1NC(=O)c1ccn2ncc(-c3cccc(Cl)c3)c2n1 [Compound B270]
- IC50: ≤ 1000 nM

Structure (SMILES): N=C(N)NCCN1CCN(c2ccccc2NC(=O)c2ccn3ncc(-c4cccc(Cl)c4)c3n2)CC1 [Compound B168]
- IC50: ≤ 1000 nM

Structure (SMILES): CCC1CN(c2ccccc2NC(=O)c2ccn3ncc(-c4cccc(Cl)c4)c3n2)CCN1 (stereo not drawn) [Compound B274]
- IC50: ≤ 1000 nM

Structure (SMILES): CCN[C@H]1CCN(c2ccc(NC(=O)c3ccn4ncc(-c5cccc(Cl)c5)c4n3)cc2)C1 [Compound B54]
- IC50: ≤ 1000 nM

Structure (SMILES): O=C(Nc1ccccc1N1CCNCC1)c1cc(N2CCOCC2)n2ncc(-c3cccc(Cl)c3)c2n1 [Compound B32]
- IC50: ≤ 1000 nM

Structure (SMILES): CCNC1CCN(c2ccccc2NC(=O)c2cnc3c(-c4ccc(Cl)cc4)cnn3c2)CC1 [Compound B17]
- IC50: ≤ 1000 nM

Structure (SMILES): O=C(NCc1cccs1)c1ccn2ncc(-c3ccc(OCc4ccccc4)cc3)c2n1 [Compound A311]
- IC50: ≤ 1000 nM

Structure (SMILES): NCC(=O)N1CCN(c2ccccc2NC(=O)c2ccn3ncc(-c4cccc(Cl)c4)c3n2)CC1 [Compound B150]
- IC50: ≤ 1000 nM

Structure (SMILES): O=C(Nc1cccc(C(=O)N2CCNCC2)c1)c1ccn2ncc(-c3cccc(Cl)c3)c2n1 [Compound B42]
- IC50: ≤ 1000 nM

Structure (SMILES): CN(C)[C@@H]1CCN(c2ccccc2NC(=O)c2ccn3ncc(-c4cccc(Cl)c4)c3n2)C1 [Compound A123]
- IC50: ≤ 1000 nM

Structure (SMILES): O=C(Nc1ccc(N2CCNCC2)cc1)c1ccn2ncc(-c3ccc(NCC4CCCCC4)cc3)c2n1 [Compound B142]
- IC50: ≤ 1000 nM

Structure (SMILES): O=C(Nc1ccccc1N1CCNCC1)c1ccn2ncc(-c3ccccc3Oc3ccccc3)c2n1 [Compound A234]
- IC50: ≤ 1000 nM

Structure (SMILES): O=C(Nc1ccccc1N1CCNCC1)c1ccn2ncc(-c3ccc(Oc4ccccc4)nc3)c2n1 [Compound A247]
- IC50: ≤ 1000 nM

Structure (SMILES): CCNC1CCN(c2ccc(C(F)(F)F)cc2NC(=O)c2ccn3ncc(-c4cccc(Cl)c4)c3n2)CC1 [Compound B209]
- IC50: ≤ 1000 nM

Structure (SMILES): O=C(Nc1cccnc1N1CCNCC1)c1ccn2ncc(-c3cccc(Cl)c3)c2n1 [Compound B182]
- IC50: ≤ 1000 nM

Structure (SMILES): N[C@@H]1CCN(c2ccc(NC(=O)c3ccn4ncc(-c5cccc(Cl)c5)c4n3)cc2)C1 [Compound B307]
- IC50: ≤ 1000 nM

Structure (SMILES): CCN[C@@H]1CCN(c2ccc(NC(=O)c3ccn4ncc(-c5cccc(Cl)c5)c4n3)cc2)C1 [Compound B312]
- IC50: ≤ 1000 nM

Structure (SMILES): CN[C@H]1CC[C@@H](Oc2ccc(NC(=O)c3ccn4ncc(-c5cccc(Cl)c5)c4n3)cc2)CC1 [Compound B253]
- IC50: ≤ 1000 nM

Structure (SMILES): O=C(Nc1ccc(OCCCN2CCNCC2)cc1)c1ccn2ncc(-c3cccc(Cl)c3)c2n1 [Compound B233]
- IC50: ≤ 1000 nM

Structure (SMILES): O=C(Nc1cc(F)c(F)cc1N1CCNCC1)c1ccn2ncc(-c3cccc(Cl)c3)c2n1 [Compound B211]
- IC50: ≤ 1000 nM

Structure (SMILES): NCCNc1ccccc1NC(=O)c1ccn2ncc(-c3ccc(OCc4ccccc4)cc3)c2n1 [Compound A268]
- IC50: ≤ 1000 nM

Structure (SMILES): O=C(N[C@@H](CO)c1ccccc1)c1ccn2ncc(-c3ccc(OCc4ccccc4)cc3)c2n1 [Compound A335]
- IC50: ≤ 1000 nM

Structure (SMILES): CCOC(=O)CCCNC1CCN(c2ccccc2NC(=O)c2ccn3ncc(-c4cccc(Cl)c4)c3n2)CC1 [Compound B102]
- IC50: ≤ 1000 nM

Structure (SMILES): CCN(CC)c1cc(C(=O)Nc2ccccc2N2CCN(CCN)CC2)nc2c(-c3cccc(Cl)c3)cnn12 [Compound B216]
- IC50: ≤ 1000 nM

Structure (SMILES): O=C(Nc1ccccc1)c1ccc(-c2cnn3ccc(C(=O)Nc4ccccc4N4CCNCC4)nc23)cc1 [Compound A215]
- IC50: ≤ 1000 nM

Structure (SMILES): O=C(Nc1ccc(N2CCNCC2)cc1)c1ccn2ncc(-c3ccc(Cl)c(Cl)c3)c2n1 [Compound B225]
- IC50: ≤ 1000 nM

Structure (SMILES): O=C(NCCN1CCCCC1)c1ccn2ncc(-c3ccc(OCc4ccccc4)cc3)c2n1 [Compound A303]
- IC50: ≤ 1000 nM

Structure (SMILES): CC(C)CN1CCN(c2ccccc2NC(=O)c2ccn3ncc(-c4cccc(Cl)c4)c3n2)CC1 [Compound B74]
- IC50: ≤ 1000 nM

Structure (SMILES): O=C(Nc1ccccc1N1CCC[C@@H]1CNCCO)c1ccn2ncc(-c3cccc(Cl)c3)c2n1 [Compound B198]
- IC50: ≤ 1000 nM

Structure (SMILES): CNC1CCN(c2ccccc2NC(=O)c2ccn3ncc(-c4ccc(/C=C/c5ccccc5)cc4)c3n2)CC1 [Compound B192]
- IC50: ≤ 1000 nM

Structure (SMILES): O=C(Nc1ccc(N2CCNCC2)cc1)c1ccn2ncc(-c3ccccc3)c2n1 [Compound B229]
- IC50: ≤ 1000 nM

Structure (SMILES): O=C(Nc1ccccc1N1CCC(N2CCCC2)CC1)c1ccn2ncc(-c3cccc(Cl)c3)c2n1 [Compound B254]
- IC50: ≤ 1000 nM

Structure (SMILES): CS(=O)(=O)NCCCN1CCN(c2ccccc2NC(=O)c2ccn3ncc(-c4cccc(Cl)c4)c3n2)CC1 [Compound B147]
- IC50: ≤ 1000 nM

Structure (SMILES): O=C(Nc1ccccc1N1CCNCC1)c1ccn2ncc(-c3ccc(SCC4CCCO4)cc3)c2n1 (stereo not drawn) [Compound A255]
- IC50: ≤ 1000 nM

Structure (SMILES): O=C(Nc1cccc(N2CCN(CCO)CC2)c1)c1ccn2ncc(-c3ccc(NCC4CCCCC4)cc3)c2n1 [Compound B72]
- IC50: ≤ 1000 nM

Structure (SMILES): Cc1ccc(NC(=O)c2ccn3ncc(-c4cccc(Cl)c4)c3n2)c(N2CCNCC2)c1 [Compound B82]
- IC50: ≤ 1000 nM

Structure (SMILES): O=C(c1ccn2ncc(-c3ccc(OCc4ccccc4)cc3)c2n1)n1cnc2ccccc21 [Compound A302]
- IC50: ≤ 1000 nM

Structure (SMILES): O=C(N[C@H](CO)Cc1ccccc1)c1ccn2ncc(-c3ccc(NCC4CCCCC4)cc3)c2n1 [Compound B86]
- IC50: ≤ 1000 nM

Structure (SMILES): CCCNC1CCN(c2ccccc2NC(=O)c2cnc3c(-c4cccc(Cl)c4)cnn3c2)CC1 [Compound B6]
- IC50: ≤ 1000 nM

Structure (SMILES): CNC1CCN(c2ccccc2NC(=O)Nc2cnc3c(-c4ccc(Cl)cc4)cnn3c2)CC1 [Compound B36]
- IC50: ≤ 1000 nM

Structure (SMILES): O=C(c1ccn2ncc(-c3cccc(Cl)c3)c2n1)N(Cc1ccccc1)C1CCNCC1 [Compound B39]
- IC50: ≤ 1000 nM

Structure (SMILES): CCN(CC)CCNc1ccccc1NC(=O)c1ccn2ncc(-c3ccc(OCc4ccccc4)cc3)c2n1 [Compound A259]
- IC50: ≤ 1000 nM

Structure (SMILES): CCCCCNC1CCN(c2ccccc2NC(=O)c2ccn3ncc(-c4cccc(Cl)c4)c3n2)CC1 [Compound B235]
- IC50: ≤ 1000 nM

Structure (SMILES): NC[C@H]1CCCN1c1ccccc1NC(=O)c1ccn2ncc(-c3ccc(Cl)cc3)c2n1 [Compound B318]
- IC50: ≤ 1000 nM

Structure (SMILES): COC(=O)[C@@H](Cc1ccccc1)NC(=O)c1ccn2ncc(-c3ccc(OCc4ccccc4)cc3)c2n1 [Compound A277]
- IC50: ≤ 1000 nM

Structure (SMILES): O=C(Nc1cccc(N2CCNCC2)c1)c1ccn2ncc(-c3ccc(CNC4CCCCC4)cc3)c2n1 [Compound B333]
- IC50: ≤ 1000 nM

Structure (SMILES): O=C(Nc1ccc(F)c(F)c1N1CCNCC1)c1ccn2ncc(-c3cccc(Cl)c3)c2n1 [Compound B60]
- IC50: ≤ 1000 nM

Structure (SMILES): CC1CN(c2ccccc2NC(=O)c2ccn3ncc(-c4cccc(Cl)c4)c3n2)CCN1 (stereo not drawn) [Compound B143]
- IC50: ≤ 1000 nM

Structure (SMILES): CCCNC1CCN(c2ccccc2NC(=O)c2cnc3c(-c4ccc(Cl)cc4)cnn3c2)CC1 [Compound B19]
- IC50: ≤ 1000 nM

Structure (SMILES): O=C(Nc1ccc(N2CCNCC2)cc1)c1ccn2ncc(-c3cccc(C(F)(F)F)c3)c2n1 [Compound B297]
- IC50: ≤ 1000 nM

Structure (SMILES): CCN[C@H]1CC[C@@H](Oc2ccc(NC(=O)c3ccn4ncc(-c5cccc(Cl)c5)c4n3)cc2)CC1 [Compound B324]
- IC50: ≤ 1000 nM

Structure (SMILES): O=C(Nc1ccccc1N1CCNCC1)c1ccn2ncc(-c3ccc(CCc4ccccc4C(F)(F)F)cc3)c2n1 [Compound A299]
- IC50: ≤ 1000 nM

Structure (SMILES): O=C(Nc1cc(F)c(N2CCNCC2)cc1F)c1ccn2ncc(-c3cccc(Cl)c3)c2n1 [Compound B138]
- IC50: ≤ 1000 nM

Structure (SMILES): CCCNC1CCN(c2ccccc2NC(=O)Nc2cnc3c(-c4cccc(Cl)c4)cnn3c2)CC1 [Compound B199]
- IC50: ≤ 1000 nM

Structure (SMILES): O=C(Nc1ccccc1N1CCN(CCCO)CC1)c1ccn2ncc(-c3cccc(Cl)c3)c2n1 [Compound B144]
- IC50: ≤ 1000 nM

Structure (SMILES): CNCCC1CCN(c2ccc(C(F)(F)F)cc2NC(=O)c2ccn3ncc(-c4cccc(Cl)c4)c3n2)CC1 [Compound B45]
- IC50: ≤ 1000 nM

Structure (SMILES): NCCNc1cccc(NC(=O)c2ccn3ncc(-c4ccc(OCc5ccccc5)cc4)c3n2)c1 [Compound B13]
- IC50: ≤ 1000 nM
